# The list shows a part of the results, in another mix than the full data. At the low end of the ranking the order means little.
# The chains behind the UniProt entries cited, without tags or fusion partners. Where a name states a change or a piece, a line headed by the entry shows the natural chain unless it says otherwise.
# UniProt O43186: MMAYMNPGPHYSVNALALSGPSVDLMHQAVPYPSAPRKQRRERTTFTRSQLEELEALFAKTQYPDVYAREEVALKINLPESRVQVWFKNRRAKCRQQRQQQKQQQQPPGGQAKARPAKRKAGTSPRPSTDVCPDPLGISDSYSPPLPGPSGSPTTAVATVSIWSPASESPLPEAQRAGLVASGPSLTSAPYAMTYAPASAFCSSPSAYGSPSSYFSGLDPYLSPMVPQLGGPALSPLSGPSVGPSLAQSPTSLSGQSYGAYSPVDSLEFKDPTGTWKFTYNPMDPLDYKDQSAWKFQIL
# Target: CRX (UniProt O43186)
# Test: DAPPL (digital affinity profiling via proximity ligation, sequencing)
# Conditions: 10 mM Tris-HCl pH 7.5, 50 mM NaCl, 1 mM DTT, 4% glycerol, room temperature, 30 min; GST-TFs on glutathione beads, 16-mer random dsDNA library, 0.1% …; high values mean tight binding; double strand, one strand shown; scale: fold enrichment (6-mer frequency, TF over GST control)
row,Sequence,binding signal
1,TTCCCG,1.7
2,AATTCG,1.57
3,TTGGTC,0.932
4,CTTTGT,1.38
5,TTCATT,1.15
6,ATGCTA,1.45
7,ACTACA,0.946
8,GCTAGC,1.05
9,AGTACA,0.847
10,TCATTA,1.62
11,CCCTTA,1.59
12,CTGCGG,0.835
13,GTCCTC,0.87
14,CTGTCC,0.871
15,ATTGCA,1.11
16,GTTGTT,0.939
17,CAACGA,0.84
18,ACACAA,0.955
19,TCTTGG,1.32
20,TTACTT,1.95

# Rewritten with tabs: part of the list above.
row	Sequence	binding signal
10	TCATTA	1.62
11	CCCTTA	1.59
12	CTGCGG	0.835
13	GTCCTC	0.87
14	CTGTCC	0.871
15	ATTGCA	1.11
16	GTTGTT	0.939
17	CAACGA	0.84
18	ACACAA	0.955

# Continuation:

row,Sequence,binding signal
1,GTCTCG,1.06
2,CGGAAC,0.457
3,CACCTC,0.798
4,CAAGAT,1.23
5,GTACCT,0.906
6,CACCCT,0.98
7,ATATCT,1.39
8,AAATAA,1.71
9,CGATAG,0.979
10,TGTTGT,0.938
11,ACGACG,0.891
12,CCTTGT,0.919
13,CACACC,0.725
14,GCACAT,0.848
15,TAAACC,2.11
16,TGTCGC,0.668
17,TTGTCA,0.998
18,TAAGTA,2.63
19,GGTTCC,0.729

# Reference: article PMC7862700
